Reference: publication PMC12223775
No constants are given. Whether binding was seen depends on the method and setting. Binding seen in cells or lysates may run through a third protein. Some entries that bind do so weakly or less than the wild type.

By UniProt entry, the sequences of proteins in these tests, tags left out.
UniProt P46937: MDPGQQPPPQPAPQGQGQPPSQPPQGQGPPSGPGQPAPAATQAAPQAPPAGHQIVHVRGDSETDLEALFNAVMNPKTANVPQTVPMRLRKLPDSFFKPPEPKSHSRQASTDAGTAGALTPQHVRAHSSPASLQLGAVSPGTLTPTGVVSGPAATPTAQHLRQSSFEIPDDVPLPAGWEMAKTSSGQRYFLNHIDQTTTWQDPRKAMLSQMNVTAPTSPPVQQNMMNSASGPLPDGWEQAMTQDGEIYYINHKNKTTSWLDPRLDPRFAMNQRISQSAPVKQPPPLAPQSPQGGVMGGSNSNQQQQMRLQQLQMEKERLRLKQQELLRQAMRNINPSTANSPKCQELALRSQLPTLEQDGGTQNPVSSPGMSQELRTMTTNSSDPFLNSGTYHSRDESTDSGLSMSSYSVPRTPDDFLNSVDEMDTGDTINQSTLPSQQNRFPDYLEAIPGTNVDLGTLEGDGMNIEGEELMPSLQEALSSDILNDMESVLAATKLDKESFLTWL
UniProt P49321: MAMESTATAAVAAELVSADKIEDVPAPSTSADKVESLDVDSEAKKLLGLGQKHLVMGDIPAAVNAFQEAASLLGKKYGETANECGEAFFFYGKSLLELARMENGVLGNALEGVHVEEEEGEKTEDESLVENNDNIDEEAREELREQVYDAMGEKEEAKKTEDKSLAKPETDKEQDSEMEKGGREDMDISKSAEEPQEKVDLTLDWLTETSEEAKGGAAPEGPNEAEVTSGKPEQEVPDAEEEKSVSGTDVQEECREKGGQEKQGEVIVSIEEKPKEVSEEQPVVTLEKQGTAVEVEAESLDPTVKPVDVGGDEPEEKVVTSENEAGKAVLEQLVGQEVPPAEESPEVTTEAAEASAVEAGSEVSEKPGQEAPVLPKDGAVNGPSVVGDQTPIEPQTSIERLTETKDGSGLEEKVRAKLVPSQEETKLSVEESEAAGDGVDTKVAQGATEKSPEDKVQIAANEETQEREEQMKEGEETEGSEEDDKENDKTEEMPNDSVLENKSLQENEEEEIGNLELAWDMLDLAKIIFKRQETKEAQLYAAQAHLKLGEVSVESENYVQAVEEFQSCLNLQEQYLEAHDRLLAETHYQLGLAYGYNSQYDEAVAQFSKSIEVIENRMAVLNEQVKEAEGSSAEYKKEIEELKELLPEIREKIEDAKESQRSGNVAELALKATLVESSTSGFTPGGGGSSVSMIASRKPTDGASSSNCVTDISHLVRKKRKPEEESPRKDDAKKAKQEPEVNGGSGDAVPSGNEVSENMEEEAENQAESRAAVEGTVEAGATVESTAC

T1: USP15 (human (endogenous in TNBC cell lines)) (UniProt Q9Y4E8)
T1 sequence: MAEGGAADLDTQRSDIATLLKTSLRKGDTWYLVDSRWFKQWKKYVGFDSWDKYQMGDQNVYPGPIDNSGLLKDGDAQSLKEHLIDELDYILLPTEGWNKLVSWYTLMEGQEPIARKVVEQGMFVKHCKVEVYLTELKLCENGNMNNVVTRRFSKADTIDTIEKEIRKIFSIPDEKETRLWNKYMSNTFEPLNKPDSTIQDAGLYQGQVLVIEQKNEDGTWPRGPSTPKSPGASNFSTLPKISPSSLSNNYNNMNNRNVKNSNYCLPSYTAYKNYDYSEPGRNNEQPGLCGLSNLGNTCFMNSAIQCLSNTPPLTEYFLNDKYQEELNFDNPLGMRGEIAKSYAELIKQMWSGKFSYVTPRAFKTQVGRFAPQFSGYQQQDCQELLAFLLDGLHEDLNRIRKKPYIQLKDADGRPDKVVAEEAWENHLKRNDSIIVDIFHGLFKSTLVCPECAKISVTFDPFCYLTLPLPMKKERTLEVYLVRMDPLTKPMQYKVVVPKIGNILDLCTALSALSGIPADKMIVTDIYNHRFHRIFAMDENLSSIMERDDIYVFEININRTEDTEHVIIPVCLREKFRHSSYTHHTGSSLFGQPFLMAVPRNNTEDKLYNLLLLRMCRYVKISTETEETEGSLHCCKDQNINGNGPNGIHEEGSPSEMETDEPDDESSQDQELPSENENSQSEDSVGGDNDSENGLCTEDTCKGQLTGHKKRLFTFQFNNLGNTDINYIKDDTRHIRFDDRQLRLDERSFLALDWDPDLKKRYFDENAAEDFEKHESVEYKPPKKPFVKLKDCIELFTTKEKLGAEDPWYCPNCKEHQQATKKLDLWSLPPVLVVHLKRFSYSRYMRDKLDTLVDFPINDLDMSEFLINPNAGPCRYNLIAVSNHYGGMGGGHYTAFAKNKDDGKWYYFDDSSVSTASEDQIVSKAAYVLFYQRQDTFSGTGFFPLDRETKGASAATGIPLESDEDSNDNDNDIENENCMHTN


Legend:
[1] = molecular target: T1, USP15 (human (endogenous in TNBC cell lines)); experiment: co-IP; co-IP from TNBC cells (anti-YAP1 or anti-USP15), western blotting; procedure referred to a previous study
[2] = molecular target: yes-associated protein (YAP) (human (endogenous in TNBC cell lines)) (UniProt P46937); experiment: as above

binding [1] | binding [2] | Molecule
binds | – | nuclear autoantigenic sperm protein (NASP) (from UniProt P49321 1-788)
– | binds | USP15 (enzyme, UniProt Q9Y4E8 1-981) MAEGGAADLDTQRSDIATLLKTSLRKGDTWYLVDSRWFKQWKKYVGFDSWDKYQMGDQNVYPGPIDNSGLLKDGDAQSLKEHLIDELDYILLPTEGWNKLVSWYTLMEGQEPIARKVVEQGMFVKHCKVEVYLTELKLCENGNMNNVVTRRFSKADTIDTIEKEIRKIFSIPDEKETRLWNKYMSNTFEPLNKPDSTIQDAGLYQGQVLVIEQKNEDGTWPRGPSTPKSPGASNFSTLPKISPSSLSNNYNNMNNRNVKNSNYCLPSYTAYKNYDYSEPGRNNEQPGLCGLSNLGNTCFMNSAIQCLSNTPPLTEYFLNDKYQEELNFDNPLGMRGEIAKSYAELIKQMWSGKFSYVTPRAFKTQVGRFAPQFSGYQQQDCQELLAFLLDGLHEDLNRIRKKPYIQLKDADGRPDKVVAEEAWENHLKRNDSIIVDIFHGLFKSTLVCPECAKISVTFDPFCYLTLPLPMKKERTLEVYLVRMDPLTKPMQYKVVVPKIGNILDLCTALSALSGIPADKMIVTDIYNHRFHRIFAMDENLSSIMERDDIYVFEININRTEDTEHVIIPVCLREKFRHSSYTHHTGSSLFGQPFLMAVPRNNTEDKLYNLLLLRMCRYVKISTETEETEGSLHCCKDQNINGNGPNGIHEEGSPSEMETDEPDDESSQDQELPSENENSQSEDSVGGDNDSENGLCTEDTCKGQLTGHKKRLFTFQFNNLGNTDINYIKDDTRHIRFDDRQLRLDERSFLALDWDPDLKKRYFDENAAEDFEKHESVEYKPPKKPFVKLKDCIELFTTKEKLGAEDPWYCPNCKEHQQATKKLDLWSLPPVLVVHLKRFSYSRYMRDKLDTLVDFPINDLDMSEFLINPNAGPCRYNLIAVSNHYGGMGGGHYTAFAKNKDDGKWYYFDDSSVSTASEDQIVSKAAYVLFYQRQDTFSGTGFFPLDRETKGASAATGIPLESDEDSNDNDNDIENENCMHTN
